Results as given in patent US20060094059A1, “Methods for identifying new drug leads and new therapeutic uses for known drugs” (Odyssey Thera, Inc., priority 2004, published 2006).

How the values were obtained:
Assay type in all cases: cell-based
[1] = test system: glioblastoma (U-87 MG) cells; assay: MTT proliferation assay, glioblastoma; details: Homo sapiens, Tumor Cell Glioblastoma (U-87 MG), 120 hours, read-out: Anti-proliferative IC-50
Protocol: (§1) Cells were maintained in various media as follows: A549, LoVo and PC-3 (Ham's F12K medium with 2 mM L-glutamine and 1.5 g/L sodium bicarbonate), MIA PaCa-2 (Dulbecco's modified Eagle's medium with 4 mM L-glutamine and 4.5 g/L glucose), U87-MG (MEM+Earle's BSS). Medium for each cell line was supplemented with 10% FBS and […] Penecillin/Streptomycin. All cells were grown in incubators set at 37° C., 5% CO2. Thiazolyl Blue Tetrazolium Bromide (MTT) based proliferation assays were performed to assess the anti-proliferative activities of the compounds on these cells. Cells were seeded in 96 well plates at a density of 750 cells/well 24 hours prior to compound treatment. The cells were incubated with varying concentrations of compounds for 120 hours. […] Drug treatment was performed in 5 replicate wells. Background absorbance was established by wells containing medium but no cells. Vehicle (DMSO) only was used as control. MTT (Sigma-Aldrich, St. Louis, Mo.) was added to each well at a final concentration of 0.5 mg/ml. Following a 2 hour incubation at 37° C., medium in the wells was replaced with 0.15 ml DMSO. The plates were agitated for 15 min using a microtiter plate shaker.

[2] = test system: pancreatic carcinoma (MIA PaCa-2) cells; assay: MTT proliferation assay, pancreatic; details: Homo sapiens, Tumor Cell Pancreatic (MIA PaCa-2), 120 hours, read-out: Anti-proliferative IC-50
Protocol: as §1

[3] = test system: colon adenocarcinoma (LoVo) cells; assay: MTT proliferation assay, colon; details: Homo sapiens, Tumor Cell Colon (LoVo), 120 hours, read-out: Anti-proliferative IC-50
Protocol: as §1

[4] = test system: prostate adenocarcinoma (PC-3) cells; assay: MTT proliferation assay, prostate; details: Homo sapiens, Tumor Cell Prostate (PC-3), 120 hours, read-out: Anti-proliferative IC-50
Protocol: We used these methods to mine the known pharmacopeia for drugs with previously-unsuspected activity against cancer-related pathways. […] Hits from our cell-based screens were tested for antiproliferative activity in up to 5 different human tumor cell lines, as follows. First, drugs with significant activity in the cellular screen(s) were tested for their ability to block proliferation of a human tumor cell line (PC-3) at an initial concentration of 10 micromolar. For drugs with antiproliferative activity in PC-3 cells, dose-response curves to determine the IC50 for antiproliferative activity and additional tumor cell lines were tested to determine the breadth of activity. Methods for assessing the antiproliferative activity of the cell-based drug ‘hits’ are described below.
Cells were maintained in various media as follows: A549, LoVo and PC-3 (Ham's F12K medium with 2 mM L-glutamine and 1.5 g/L sodium bicarbonate), MIA PaCa-2 (Dulbecco's modified Eagle's medium with 4 mM L-glutamine and 4.5 g/L glucose), U87-MG (MEM+Earle's BSS). Medium for each cell line was supplemented with 10% FBS and […] Penecillin/Streptomycin. All cells were grown in incubators set at 37° C., 5% CO2. […] Background absorbance was established by wells containing medium but no cells. […]

[5] = test system: non-small cell lung carcinoma (A549) cells; assay: MTT proliferation assay, NSCLC; details: Homo sapiens, Tumor Cell NSCLC (A549), 120 hours, read-out: Anti-proliferative IC-50
Protocol: as §1

- IC50 [1]: 40 µM
- IC50 [2]: 8.4 µM
- IC50 [3]: 13.2 µM
- IC50 [4]: 18 µM
- IC50 [5]: 15.8 µM
Structure (SMILES): CC(C)OC(=O)C(C)(C)Oc1ccc(C(=O)c2ccc(Cl)cc2)cc1 [Fenofibrate]
